These are yes or no findings as the source states them, for the method shown. In cells and extracts the contact can be indirect. Some results given as binding are weak or reduced against the parent protein; the word gives no strength. Tags and fused reporters may be left off the sequences shown. Values belong to the binder of their own block, whether it stands above or below them.
Tests used:
[1] = biological target: GST-tagged mouse Oct4 (mouse) (UniProt P20263); assay: pull-down; GST pull-down with Glutathione Sepharose 4B from cells co-transfected with HA- and GST-tagged proteins; Western blot with anti-HA and anti-GST
[2] = biological target: GST-tagged mouse Sox2 (mouse) (UniProt P48432); assay: as above
[3] = biological target: mouse Sox2 (pairwise BiFC fusion) (mouse) (UniProt P48432); assay: split reporter; pairwise BiFC assay (Fig. S2B)
[4] = biological target: mouse Oct4 (pairwise BiFC fusion) (mouse) (UniProt P20263); assay: split reporter; pairwise BiFC assay (Fig. S2B)
HA-tagged Tet1 = HA-tagged Tet1 (UniProt Q3URK3); assay: co-IP; HEK293T cells co-transfected with Flag-Bend5 and HA-Tet1; immunoprecipitation with rabbit anti-Tet1 antibody; Western blot with HA and Flag antibodies

The chains behind the UniProt entries cited, without tags or fusion partners.
UniProt P20263: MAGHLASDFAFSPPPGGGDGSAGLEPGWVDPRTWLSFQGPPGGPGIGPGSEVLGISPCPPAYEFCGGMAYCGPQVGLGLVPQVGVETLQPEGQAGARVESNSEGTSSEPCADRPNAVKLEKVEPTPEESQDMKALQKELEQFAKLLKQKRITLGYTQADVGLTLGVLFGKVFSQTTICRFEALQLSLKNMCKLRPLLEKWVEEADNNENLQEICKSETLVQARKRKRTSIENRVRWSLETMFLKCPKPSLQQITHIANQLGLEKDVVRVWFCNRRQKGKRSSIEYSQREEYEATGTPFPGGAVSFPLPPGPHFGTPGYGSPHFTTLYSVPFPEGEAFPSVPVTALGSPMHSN
UniProt P48432: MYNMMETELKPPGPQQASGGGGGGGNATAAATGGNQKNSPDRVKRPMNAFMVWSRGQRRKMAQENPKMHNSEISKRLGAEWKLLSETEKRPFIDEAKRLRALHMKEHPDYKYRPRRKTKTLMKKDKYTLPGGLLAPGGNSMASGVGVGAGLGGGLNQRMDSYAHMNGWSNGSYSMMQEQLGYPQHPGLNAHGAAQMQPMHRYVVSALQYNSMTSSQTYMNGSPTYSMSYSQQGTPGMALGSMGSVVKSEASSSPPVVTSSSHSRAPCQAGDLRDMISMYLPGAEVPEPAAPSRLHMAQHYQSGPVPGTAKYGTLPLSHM
UniProt Q3URK3: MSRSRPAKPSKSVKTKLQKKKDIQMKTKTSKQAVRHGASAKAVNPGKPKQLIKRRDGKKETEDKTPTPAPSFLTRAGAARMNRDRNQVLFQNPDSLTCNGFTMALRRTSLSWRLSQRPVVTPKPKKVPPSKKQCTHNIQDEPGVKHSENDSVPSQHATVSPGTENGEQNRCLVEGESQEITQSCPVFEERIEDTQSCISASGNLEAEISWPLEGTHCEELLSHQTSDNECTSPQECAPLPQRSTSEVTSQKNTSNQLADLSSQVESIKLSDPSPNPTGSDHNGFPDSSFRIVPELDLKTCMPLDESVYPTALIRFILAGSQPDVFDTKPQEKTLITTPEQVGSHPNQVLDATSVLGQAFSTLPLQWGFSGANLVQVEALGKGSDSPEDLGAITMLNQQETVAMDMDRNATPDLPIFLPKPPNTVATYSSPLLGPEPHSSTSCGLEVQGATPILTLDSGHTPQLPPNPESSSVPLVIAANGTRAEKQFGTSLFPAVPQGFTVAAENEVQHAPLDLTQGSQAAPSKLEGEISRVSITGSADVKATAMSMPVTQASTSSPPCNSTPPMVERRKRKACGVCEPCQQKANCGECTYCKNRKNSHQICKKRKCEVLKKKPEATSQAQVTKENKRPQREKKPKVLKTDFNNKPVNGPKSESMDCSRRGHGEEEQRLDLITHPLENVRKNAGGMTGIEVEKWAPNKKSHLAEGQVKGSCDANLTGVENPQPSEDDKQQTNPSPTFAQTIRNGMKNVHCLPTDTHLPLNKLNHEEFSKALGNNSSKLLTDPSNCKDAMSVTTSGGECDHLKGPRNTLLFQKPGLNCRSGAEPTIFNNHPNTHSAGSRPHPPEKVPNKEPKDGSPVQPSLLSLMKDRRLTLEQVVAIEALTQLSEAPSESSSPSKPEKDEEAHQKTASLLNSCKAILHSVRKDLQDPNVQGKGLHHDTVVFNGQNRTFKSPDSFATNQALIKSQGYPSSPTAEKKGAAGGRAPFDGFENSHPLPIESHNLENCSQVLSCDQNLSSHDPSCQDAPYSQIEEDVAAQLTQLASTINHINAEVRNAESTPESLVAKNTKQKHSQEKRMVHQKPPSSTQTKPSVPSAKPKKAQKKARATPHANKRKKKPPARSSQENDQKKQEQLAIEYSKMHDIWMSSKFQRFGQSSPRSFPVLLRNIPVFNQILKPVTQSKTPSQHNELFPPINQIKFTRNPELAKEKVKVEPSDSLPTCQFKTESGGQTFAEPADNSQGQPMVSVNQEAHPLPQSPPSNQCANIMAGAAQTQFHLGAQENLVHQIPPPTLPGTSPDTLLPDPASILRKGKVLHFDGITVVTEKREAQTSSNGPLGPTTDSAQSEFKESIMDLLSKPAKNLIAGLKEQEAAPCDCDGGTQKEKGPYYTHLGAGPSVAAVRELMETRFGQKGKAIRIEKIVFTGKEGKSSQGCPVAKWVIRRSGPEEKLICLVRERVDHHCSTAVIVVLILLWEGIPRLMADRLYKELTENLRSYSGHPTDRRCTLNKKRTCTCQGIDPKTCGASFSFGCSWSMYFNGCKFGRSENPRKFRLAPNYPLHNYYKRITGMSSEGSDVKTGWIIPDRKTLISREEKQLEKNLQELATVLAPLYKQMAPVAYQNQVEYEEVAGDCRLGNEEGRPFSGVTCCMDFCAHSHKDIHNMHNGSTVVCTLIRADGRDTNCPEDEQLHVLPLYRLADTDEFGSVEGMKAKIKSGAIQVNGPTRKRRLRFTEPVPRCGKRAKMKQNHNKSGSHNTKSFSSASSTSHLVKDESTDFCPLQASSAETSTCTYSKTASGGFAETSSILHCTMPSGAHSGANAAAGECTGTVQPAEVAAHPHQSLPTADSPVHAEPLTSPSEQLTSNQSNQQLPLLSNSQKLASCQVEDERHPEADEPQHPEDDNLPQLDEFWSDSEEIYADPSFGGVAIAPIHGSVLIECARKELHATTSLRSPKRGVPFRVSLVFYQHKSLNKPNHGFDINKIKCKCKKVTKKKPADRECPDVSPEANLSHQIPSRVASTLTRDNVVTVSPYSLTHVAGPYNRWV

binding [1]: binds
binding [2]: binds
B1: HA-tagged mouse Bend5 (protein, UniProt Q8C6D4 1-421)
chain: MYAFVRFLEDNVCYALPVSCVRDFSPRSRLDFDNQKVYAVYRGPEELGAEPESPPRAPRDWGALLLHKAQILALAEDKSDLENSVMQKKIKIPKLSLSHVEDDGEVKDYGEEDLQLRHIKRPEGRKPSEAAHKSIEAVVARLERQNGLSLGHSTCPEEVFVEASPGTEDMDSLEDAVVPRALYEELLRNYQQQQEEMRHLQQELERTRRQLVQQAKKLKEYGALVSEMKELRDLNRRLQDVLLLRLGSGPAIDLEKVKSECLEPEPELRSTFSEEANTSSYYPAPAPVMDKYILDNGKVHLGSGIWVDEEKWHQLQVTQGDSKYTKNLAVMIWGTDVLKNRSVTGVATKKKKDAIPKPPLSPHKLSIVRECLYDRIAQETVDETEIAQRLSKVNKYICEKIMDINKSCKNEERREAKYNLQ

binding [3]: binds
binding [4]: binds
B2: mouse Bend5 (pairwise BiFC fusion) (protein, UniProt Q8C6D4 1-421)
chain: B1 chain

binding (HA-tagged Tet1): binds
B3: Flag-tagged Bend5 (protein, UniProt Q8C6D4 1-421)
chain: B1 chain

— publication PMC9233729
